Taken from: PubChem BioAssay AID1259405 (NCATS, 2018)
Test: 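Mouse-designed siRNAs used to find CHO productivity engineering targets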 (primary screen). Cell system: Chinese hamster CHO-K1 ovary cells with stable secreted eGFP expression. Reagent: single siRNA against mouse genes, 0.8 pmol siRNA per well (2 µl of 400 nM stock). Duration: 3 days. Read-out: 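Percent of the per-plate non-targeting control median for intracellular GFP per well by laser scanning cytometry and for cell viability by ATP luminescence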. Reading the numbers: GFP, % of control: higher = more GFP per well, higher productivity; viability (ATP), % of control: higher = more viable cells (more ATP). Hit rule: 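a knock-down is called active if GFP reaches 120% or more of non-targeting control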.
In all, the deposit lists about 50,000 reagents; below is a part drawn at random. About 4,000 of them (8%) were called active. 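Mouse siRNA library applied to hamster cells; one well for each siRNA.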 A number with no mark means an inactive call. The numbers tell different reagents against one gene apart.

Gene,siRNA no.,"GFP, % of control","viability (ATP), % of control"
Six3,1,112,51.4
Six3,2,72.9,66.4
Six3,3,68.3,77.8
Ttll8,1,70.1,76.7
Ttll8,2,93,77.1
Ttll8,3,65.5,62.8
Col9a1,1,59.5,44.9
Col9a1,2,77.7,66.4
Col9a1,3,64.2,67.7
Or5al6,1,56,52.7
Or5al6,2,117,103
Or5al6,3,103,52.2
Rbm34,1,42.5,72.6
Rbm34,2,95.9,76.2
Rbm34,3,76.5,72.1
Slc4a1ap,1,46.3,75.7
Slc4a1ap,2,83.7,99.6
Rwdd2a,1,153 (active),71.1
Rwdd2a,2,85.1,90.5
Rwdd2a,3,70.8,81.4
Snrpd3,1,138 (active),125
Snrpd3,2,49.9,62.1
Ndufc1,1,116,95.3
Ndufc1,2,159 (active),55.7
Ndufc1,3,104,71
Fbxw2,1,48.5,69.2
Fbxw2,2,118,69.3
Fbxw2,3,64,83.2
Plb1,1,114,79.5
Plb1,2,81.7,71
Plb1,3,85.1,37.3
Kank4,1,21.4,46.2
Kank4,2,68,91.2
Kank4,3,73.7,101
Taf12,1,78.4,60.1
Taf12,2,75.2,99.7
Taf12,3,129 (active),125
Catsper3,1,56.6,70.8
Catsper3,2,69.1,75.7
Catsper3,3,44.7,63.2
Dlgap3,1,55.5,70.9
Dlgap3,2,51.3,64.3
Dlgap3,3,58.3,73.1
Krtap6-5,1,86.3,97.3
Krtap6-5,2,36.5,35.8
Krtap6-5,3,103,77.4
2610028H24Rik,1,78.8,60.7
2610028H24Rik,2,67.6,40.7
2610028H24Rik,3,63,78.8
Tmed9,1,100,55.6
Tmed9,2,91.6,100
Tmed9,3,53.9,71.3
Dhx38,1,50.8,49.8
Dhx38,2,43.6,61.5
Dhx38,3,47.4,50.6
Or7d11,1,49.9,41.5
Or7d11,2,42.2,70.8
Or7d11,3,100,101
Shoc2,1,74.1,63.7
Shoc2,2,71.5,48.6
Shoc2,3,71.3,62.8
Cdh17,1,38.8,47.7
Cdh17,2,75.5,61.5
Cdh17,3,124 (active),87.4
Rpl27,1,93.1,64.9
Rpl27,2,64.5,39.1
Rpl27,3,28.6,21.4
H1f3,1,75.6,40.3
H1f3,2,90.5,102
H1f3,3,67.2,49.7
Mageb18,1,64.3,80.1
Mageb18,2,77.9,85.8
Mageb18,3,158 (active),94
Morn4,1,83.1,39.1
Morn4,2,70.6,67.3
Morn4,3,134 (active),137
Mapk8ip2,1,59.6,77.3
Mapk8ip2,2,66.7,82.9
Uap1,1,85.8,108
Uap1,2,70.5,122
Uap1,3,81.5,102
Ap5s1,1,50,58.6
Ap5s1,2,51.2,41.7
Ap5s1,3,77.3,87.4
Rdh19,1,102,113
Rdh19,2,102,104
Rdh19,3,79.8,60
Obp2a,1,96,67.1
Obp2a,2,68.7,68
Obp2a,3,74.4,76.1
Epha7,1,70.1,63.3
Pcyox1,1,70.1,37.6
Pcyox1,2,85.8,78.6
Pcyox1,3,50.1,88.4
Sphk1,1,103,80.8
Sphk1,2,67.3,71.5
Sphk1,3,85.6,87.4
Gpr135,1,156 (active),104
Gpr135,2,58.6,59.8
Gpr135,3,107,63.8
Gypa,1,60.8,76.2
Gypa,2,90.2,78.2
Gypa,3,101,82.8
Or4k15,1,115,103
Or4k15,2,68.2,84
Or4k15,3,102,14.2
Cyp20a1,1,62.8,39.8
Cyp20a1,2,81.3,109
Cyp20a1,3,61.2,77.8

13 entries from above, reduced to “GFP, % of control”:
Tmed9 #2 = 91.6
Tmed9 #3 = 53.9
Dhx38 #1 = 50.8
Dhx38 #2 = 43.6
Dhx38 #3 = 47.4
Or7d11 #1 = 49.9
Or7d11 #2 = 42.2
Or7d11 #3 = 100
Shoc2 #1 = 74.1
Shoc2 #2 = 71.5
Shoc2 #3 = 71.3
Cdh17 #1 = 38.8
Cdh17 #2 = 75.5
